The text below walks through data of US20220074941A1, “HSP90 COMBINATION THERAPY” (Sloan-Kettering Institute for Cancer Research, priority 2011, published 2022).

Series [1] deals with Hsp90 complexes in K562 cell extract. The experiment in a line: Nano-LC-MS/MS of PU-beads pull-downs. The series is classed as binding. Conditions: protein identified in PU-beads pull-down of K562 extract, QSTAR-Elite QTof MS. The gist of the method: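 Lysates pre-cleared overnight at 4 °C with control beads, then pulled down with PU-beads or control beads; eluted proteins (2% SDS boil) gel-separated and analysed by nano LC-MS/MS on a QTof. Mascot identification (p<0.05), spectral counts and sequence coverage evaluated in Scaffold.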

Series [2] relates to Hsp90 complexes in Mia-PaCa-2 cell extract. Description: Nano-LC-MS/MS of PU-beads pull-downs. The series is classed as binding, human. The following applies: protein identified in PU-beads pull-down of Mia-Paca 2 extract; QSTAR-Elite QTof MS. As for the experimental part: Lysates prepared as mentioned above were first pre-cleaned by incubation with control beads overnight at 4° C. […] Beads were washed with lysis buffer, proteins eluted by boiling in 2% SDS, separated on a denaturing gel and Coomassie stained according to manufacturer's procedure (Biorad). […] Analyses of the batch purified pools were done using a QSTAR-Elite hybrid quadrupole time-of-flight mass spectrometer (QTof MS) (AB/MDS Sciex), equipped with a nano spray ion source. Peptide mixtures (in 20 μL) are loaded onto a trapping guard column (0.3×5-mm PepMap C18 100 cartridge from LC Packings) using an Eksigent nano MDLC system (Eksigent Technologies, Inc) at a flow rate of 20 μL/min. […] Electrospray ionization (ESI) needle voltage was set at about 1800 V. The mass analyzer is operated in automatic, data-dependent MS/MS acquisition mode, with the threshold set to 10 counts per second of doubly or triply charged precursor ions selected for fragmentation scans. Survey scans of 0.25 sec are recorded from 400 to 1800 amu; up to 3 MS/MS scans are then collected sequentially for the selected precursor ions, recording from 100 to 1800 amu. The collision energy is automatically adjusted in accordance with the m/z value of the precursor ions selected for MS/MS. Selected precursor ions are excluded from repeated selection for 60 sec after the end of the corresponding fragmentation duty cycle. […] One missed tryptic cleavage site was allowed, precursor ion mass tolerance=0.4 Da fragment ion mass tolerance=0.4 Da, protein modifications were allowed for Met-oxide, Cys-acrylamide and N-terminal acetylation. MudPit scoring was typically applied with ‘require bold red’ activated, and using significance threshold score p<0.05. Unique peptide counts (or ‘spectral counts’) and percent sequence coverages for all identified proteins were exported to Scaffold Proteome Software (version 2_06_01, www.proteomesoftware.com) for further bioinformatic analysis (Table 5a). Using output from Mascot, Scaffold validates, organizes, and interprets mass spectrometry data, allowing more easily to manage large amounts of data, to compare samples, and to search for protein modifications.

B1: SRPK2 (protein, UniProt P78362 1-688, looked up)
SRSF protein kinase 2: MSVNSEKSSSSERPEPQQKAPLVPPPPPPPPPPPPPLPDPTPPEPEEEILGSDDEEQEDPADYCKGGYHPVKIGDLFNGRYHVIRKLGWGHFSTVWLCWDMQGKRFVAMKVVKSAQHYTETALDEIKLLKCVRESDPSDPNKDMVVQLIDDFKISGMNGIHVCMVFEVLGHHLLKWIIKSNYQGLPVRCVKSIIRQVLQGLDYLHSKCKIIHTDIKPENILMCVDDAYVRRMAAEATEWQKAGAPPPSGSAVSTAPQQKPIGKISKNKKKKLKKKQKRQAELLEKRLQEIEELEREAERKIIEENITSAAPSNDQDGEYCPEVKLKTTGLEEAAEAETAKDNGEAEDQEEKEDAEKENIEKDEDDVDQELANIDPTWIESPKTNGHIENGPFSLEQQLDDEDDDEEDCPNPEEYNLDEPNAESDYTYSSSYEQFNGELPNGRHKIPESQFPEFSTSLFSGSLEPVACGSVLSEGSPLTEQEESSPSHDRSRTVSASSTGDLPKAKTRAADLLVNPLDPRNADKIRVKIADLGNACWVHKHFTEDIQTRQYRSIEVLIGAGYSTPADIWSTACMAFELATGDYLFEPHSGEDYSRDEDHIAHIIELLGSIPRHFALSGKYSREFFNRRGELRHITKLKPWSLFDVLVEKYGWPHEDAAQFTDFLIPMLEMVPEKRASAGECLRHPWLNS
For the molecule B1, in series [1], the “Number of Assigned Spectra, K562 Prep 1” value is on record as 1 and the “Number of Assigned Spectra, K562 Prep 2” value stood at 1. Moreover, the “Number of Assigned Spectra, Mia-Paca 2” value in series [2] was determined as 0.

B2: CDK7 (protein, UniProt P50613 2-346, looked up)
Cyclin-dependent kinase 7: ALDVKSRAKRYEKLDFLGEGQFATVYKARDKNTNQIVAIKKIKLGHRSEAKDGINRTALREIKLLQELSHPNIIGLLDAFGHKSNISLVFDFMETDLEVIIKDNSLVLTPSHIKAYMLMTLQGLEYLHQHWILHRDLKPNNLLLDENGVLKLADFGLAKSFGSPNRAYTHQVVTRWYRAPELLFGARMYGVGVDMWAVGCILAELLLRVPFLPGDSDLDQLTRIFETLGTPTEEQWPDMCSLPDYVTFKSFPGIPLHHIFSAAGDDLLDLIQGLFLFNPCARITATQALKMKYFSNRPGPTPGCQLPRPNCPVETLKEQSNPALAIKRKRTEALEQGGLPKKLIF
Take B2: in series [1], the “Number of Assigned Spectra, K562 Prep 1” value worked out at 2 and the “Number of Assigned Spectra, K562 Prep 2” value is recorded as 0. Further, the “Number of Assigned Spectra, Mia-Paca 2” value in series [2] is reported as 1.

B3: KSR1 (protein, UniProt Q8IVT5 1-923, looked up)
Kinase suppressor of Ras 1: MDRAALRAAAMGEKKEGGGGGDAAAAEGGAGAAASRALQQCGQLQKLIDISIGSLRGLRTKCAVSNDLTQQEIRTLEAKLVRYICKQRQCKLSVAPGERTPELNSYPRFSDWLYTFNVRPEVVQEIPRDLTLDALLEMNEAKVKETLRRCGASGDECGRLQYALTCLRKVTGLGGEHKEDSSWSSLDARRESGSGPSTDTLSAASLPWPPGSSQLGRAGNSAQGPRSISVSALPASDSPTPSFSEGLSDTCIPLHASGRLTPRALHSFITPPTTPQLRRHTKLKPPRTPPPPSRKVFQLLPSFPTLTRSKSHESQLGNRIDDVSSMRFDLSHGSPQMVRRDIGLSVTHRFSTKSWLSQVCHVCQKSMIFGVKCKHCRLKCHNKCTKEAPACRISFLPLTRLRRTESVPSDINNPVDRAAEPHFGTLPKALTKKEHPPAMNHLDSSSNPSSTTSSTPSSPAPFPTSSNPSSATTPPNPSPGQRDSRFNFPAAYFIHHRQQFIFPVPSAGHCWKCLLIAESLKENAFNISAFAHAAPLPEAADGTRLDDQPKADVLEAHEAEAEEPEAGKSEAEDDEDEVDDLPSSRRPWRGPISRKASQTSVYLQEWDIPFEQVELGEPIGQGRWGRVHRGRWHGEVAIRLLEMDGHNQDHLKLFKKEVMNYRQTRHENVVLFMGACMNPPHLAIITSFCKGRTLHSFVRDPKTSLDINKTRQIAQEIIKGMGYLHAKGIVHKDLKSKNVFYDNGKVVITDFGLFGISGVVREGRRENQLKLSHDWLCYLAPEIVREMTPGKDEDQLPFSKAADVYAFGTVWYELQARDWPLKNQAAEASIWQIGSGEGMKRVLTSVSLGKEVSEILSACWAFDLQERPSFSLLMDMLEKLPKLNRRLSHPGHFWKSADINSSKVVPRFERFGLGVLESSNPKM
As to B3, in series [1], the “Number of Assigned Spectra, K562 Prep 1” value is 3 and the “Number of Assigned Spectra, K562 Prep 2” value came to 0. Moreover, the “Number of Assigned Spectra, Mia-Paca 2” value in series [2] is recorded as 0.

B4: BMP2K (protein, UniProt Q9NSY1 1-1161, looked up)
BMP-2-inducible protein kinase: MKKFSRMPKSEGGSGGGAAGGGAGGAGAGAGCGSGGSSVGVRVFAVGRHQVTLEESLAEGGFSTVFLVRTHGGIRCALKRMYVNNMPDLNVCKREITIMKELSGHKNIVGYLDCAVNSISDNVWEVLILMEYCRAGQVVNQMNKKLQTGFTEPEVLQIFCDTCEAVARLHQCKTPIIHRDLKVENILLNDGGNYVLCDFGSATNKFLNPQKDGVNVVEEEIKKYTTLSYRAPEMINLYGGKPITTKADIWALGCLLYKLCFFTLPFGESQVAICDGNFTIPDNSRYSRNIHCLIRFMLEPDPEHRPDIFQVSYFAFKFAKKDCPVSNINNSSIPSALPEPMTASEAAARKSQIKARITDTIGPTETSIAPRQRPKANSATTATPSVLTIQSSATPVKVLAPGEFGNHRPKGALRPGNGPEILLGQGPPQQPPQQHRVLQQLQQGDWRLQQLHLQHRHPHQQQQQQQQQQQQQQQQQQQQQQQQQQQHHHHHHHHLLQDAYMQQYQHATQQQQMLQQQFLMHSVYQPQPSASQYPTMMPQYQQAFFQQQMLAQHQPSQQQASPEYLTSPQEFSPALVSYTSSLPAQVGTIMDSSYSANRSVADKEAIANFTNQKNISNPPDMSGWNPFGEDNFSKLTEEELLDREFDLLRSNRLEERASSDKNVDSLSAPHNHPPEDPFGSVPFISHSGSPEKKAEHSSINQENGTANPIKNGKTSPASKDQRTGKKTSVQGQVQKGNDESESDFESDPPSPKSSEEEEQDDEEVLQGEQGDFNDDDTEPENLGHRPLLMDSEDEEEEEKHSSDSDYEQAKAKYSDMSSVYRDRSGSGPTQDLNTILLTSAQLSSDVAVETPKQEFDVFGAVPFFAVRAQQPQQEKNEKNLPQHRFPAAGLEQEEFDVFTKAPFSKKVNVQECHAVGPEAHTIPGYPKSVDVFGSTPFQPFLTSTSKSESNEDLFGLVPFDEITGSQQQKVKQRSLQKLSSRQRRTKQDMSKSNGKRHHGTPTSTKKTLKPTYRTPERARRHKKVGRRDSQSSNEFLTISDSKENISVALTDGKDRGNVLQPEESLLDPFGAKPFHSPDLSWHPPHQGLSDIRADHNTVLPGRPRQNSLHGSFHSADVLKMDDFGAVPFTELVVQSITPHQSQQSQPVELDPFGAAPFPSKQ
Turning to B4, in series [1], the “Number of Assigned Spectra, K562 Prep 1” value turned out to be 4 and the “Number of Assigned Spectra, K562 Prep 2” value is 3. The “Number of Assigned Spectra, Mia-Paca 2” value in series [2] is given as 0.

B5: SRPK1 (protein, UniProt Q96SB4 1-655, looked up)
SRSF protein kinase 1: MERKVLALQARKKRTKAKKDKAQRKSETQHRGSAPHSESDLPEQEEEILGSDDDEQEDPNDYCKGGYHLVKIGDLFNGRYHVIRKLGWGHFSTVWLSWDIQGKKFVAMKVVKSAEHYTETALDEIRLLKSVRNSDPNDPNREMVVQLLDDFKISGVNGTHICMVFEVLGHHLLKWIIKSNYQGLPLPCVKKIIQQVLQGLDYLHTKCRIIHTDIKPENILLSVNEQYIRRLAAEATEWQRSGAPPPSGSAVSTAPQPKPADKMSKNKKKKLKKKQKRQAELLEKRMQEIEEMEKESGPGQKRPNKQEESESPVERPLKENPPNKMTQEKLEESSTIGQDQTLMERDTEGGAAEINCNGVIEVINYTQNSNNETLRHKEDLHNANDCDVQNLNQESSFLSSQNGDSSTSQETDSCTPITSEVSDTMVCQSSSTVGQSFSEQHISQLQESIRAEIPCEDEQEQEHNGPLDNKGKSTAGNFLVNPLEPKNAEKLKVKIADLGNACWVHKHFTEDIQTRQYRSLEVLIGSGYNTPADIWSTACMAFELATGDYLFEPHSGEEYTRDEDHIALIIELLGKVPRKLIVAGKYSKEFFTKKGDLKHITKLKPWGLFEVLVEKYEWSQEEAAGFTDFLLPMLELIPEKRATAAECLRHPWLNS
For B5, in series [1], the “Number of Assigned Spectra, K562 Prep 1” value was determined as 11 and the “Number of Assigned Spectra, K562 Prep 2” value is on record as 2. In series [2], the “Number of Assigned Spectra, Mia-Paca 2” value worked out at 7.
